Test results as given in US6500942.
Results are given in words; binding and its absence hold for the method and conditions named. Some results given as binding are weak or reduced against the parent protein; the word gives no strength.

Protein sequences, listed by entry. Tags and fused reporters are not part of them. Lines headed by an entry give the natural chain unless they say otherwise; changes in a name come on top.
UniProt P04386: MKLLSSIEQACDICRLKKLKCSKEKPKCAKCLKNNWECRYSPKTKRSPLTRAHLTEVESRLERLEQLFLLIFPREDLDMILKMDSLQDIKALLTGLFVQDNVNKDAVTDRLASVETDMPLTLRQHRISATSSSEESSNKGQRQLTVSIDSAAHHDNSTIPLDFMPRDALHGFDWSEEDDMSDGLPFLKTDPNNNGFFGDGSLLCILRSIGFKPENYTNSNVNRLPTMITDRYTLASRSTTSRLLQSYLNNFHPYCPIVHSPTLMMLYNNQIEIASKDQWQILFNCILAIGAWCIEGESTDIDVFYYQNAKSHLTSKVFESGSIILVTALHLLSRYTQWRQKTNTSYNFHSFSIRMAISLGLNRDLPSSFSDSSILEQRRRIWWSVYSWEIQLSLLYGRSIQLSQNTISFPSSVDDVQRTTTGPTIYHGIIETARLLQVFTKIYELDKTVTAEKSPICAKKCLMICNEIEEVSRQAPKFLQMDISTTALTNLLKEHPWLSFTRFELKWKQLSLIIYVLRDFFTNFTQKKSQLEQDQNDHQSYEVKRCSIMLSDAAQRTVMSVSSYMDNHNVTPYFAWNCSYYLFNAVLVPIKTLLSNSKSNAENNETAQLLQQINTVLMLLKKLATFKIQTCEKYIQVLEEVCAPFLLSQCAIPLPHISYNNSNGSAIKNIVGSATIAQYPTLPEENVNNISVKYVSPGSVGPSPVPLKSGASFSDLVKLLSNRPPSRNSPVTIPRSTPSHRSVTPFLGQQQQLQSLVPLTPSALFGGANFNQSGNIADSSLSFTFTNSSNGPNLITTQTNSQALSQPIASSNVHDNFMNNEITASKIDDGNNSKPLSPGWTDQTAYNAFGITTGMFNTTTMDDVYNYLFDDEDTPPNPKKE
UniProt Q9JM13: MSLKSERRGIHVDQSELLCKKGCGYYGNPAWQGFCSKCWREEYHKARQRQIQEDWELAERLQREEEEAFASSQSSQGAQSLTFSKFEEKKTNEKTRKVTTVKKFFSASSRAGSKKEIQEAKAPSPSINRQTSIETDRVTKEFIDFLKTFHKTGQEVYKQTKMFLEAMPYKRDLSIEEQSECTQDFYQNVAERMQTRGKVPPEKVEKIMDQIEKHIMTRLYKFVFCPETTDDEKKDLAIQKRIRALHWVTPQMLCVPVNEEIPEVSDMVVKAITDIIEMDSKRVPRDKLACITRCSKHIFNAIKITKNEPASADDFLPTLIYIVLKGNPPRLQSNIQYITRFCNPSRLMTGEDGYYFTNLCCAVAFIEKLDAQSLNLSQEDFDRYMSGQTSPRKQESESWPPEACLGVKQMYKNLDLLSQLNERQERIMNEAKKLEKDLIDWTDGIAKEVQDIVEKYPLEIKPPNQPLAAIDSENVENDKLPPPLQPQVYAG

Assays:
[1] = molecular target: T1, wild-type murine H-Ras expressed as the DNA-binding fusion protein (murine) (UniProt P04386+Q61411); test: yeast two-hybrid, Rin2 segment as GAL4-activation domain fusion, H-Ras as DNA-binding fusion
[2] = molecular target: T1, wild-type murine H-Ras expressed as the DNA-binding fusion protein (murine); test: yeast two-hybrid, Rin2 as GAL4-activation domain fusion, H-Ras as DNA-binding fusion

Substance	binding [1]	binding [2]
C-terminal region of murine Rin2 expressed as a GAL4-activation domain fusion protein (from UniProt Q9JM13 381-491)	binds	
N-terminal region of murine Rin2 expressed as a GAL4-activation domain fusion protein (from UniProt Q9JM13 1-202)	binds	
full-length murine Rin2 (residues 1-491) expressed as a GAL4-activation domain fusion protein (from UniProt Q9JM13 1-491)		binds
region of murine Rin2 containing the three GBH domains (residues 203-380) expressed as a GAL4-activation domain fusion protein (from UniProt Q9JM13 203-380)	binds	
